Measured values as given in article PMC7600810.
These are yes or no findings as the source states them, for the method shown. In cells and extracts the contact can be indirect. Some results given as binding are weak or reduced against the parent protein; the word gives no strength. Sequences can lack the tags named with a protein. Values belong to the binder of their own block, whether it stands above or below them.

Chains of the proteins cited; added tags and fusions are not shown.
UniProt Q9UBN7: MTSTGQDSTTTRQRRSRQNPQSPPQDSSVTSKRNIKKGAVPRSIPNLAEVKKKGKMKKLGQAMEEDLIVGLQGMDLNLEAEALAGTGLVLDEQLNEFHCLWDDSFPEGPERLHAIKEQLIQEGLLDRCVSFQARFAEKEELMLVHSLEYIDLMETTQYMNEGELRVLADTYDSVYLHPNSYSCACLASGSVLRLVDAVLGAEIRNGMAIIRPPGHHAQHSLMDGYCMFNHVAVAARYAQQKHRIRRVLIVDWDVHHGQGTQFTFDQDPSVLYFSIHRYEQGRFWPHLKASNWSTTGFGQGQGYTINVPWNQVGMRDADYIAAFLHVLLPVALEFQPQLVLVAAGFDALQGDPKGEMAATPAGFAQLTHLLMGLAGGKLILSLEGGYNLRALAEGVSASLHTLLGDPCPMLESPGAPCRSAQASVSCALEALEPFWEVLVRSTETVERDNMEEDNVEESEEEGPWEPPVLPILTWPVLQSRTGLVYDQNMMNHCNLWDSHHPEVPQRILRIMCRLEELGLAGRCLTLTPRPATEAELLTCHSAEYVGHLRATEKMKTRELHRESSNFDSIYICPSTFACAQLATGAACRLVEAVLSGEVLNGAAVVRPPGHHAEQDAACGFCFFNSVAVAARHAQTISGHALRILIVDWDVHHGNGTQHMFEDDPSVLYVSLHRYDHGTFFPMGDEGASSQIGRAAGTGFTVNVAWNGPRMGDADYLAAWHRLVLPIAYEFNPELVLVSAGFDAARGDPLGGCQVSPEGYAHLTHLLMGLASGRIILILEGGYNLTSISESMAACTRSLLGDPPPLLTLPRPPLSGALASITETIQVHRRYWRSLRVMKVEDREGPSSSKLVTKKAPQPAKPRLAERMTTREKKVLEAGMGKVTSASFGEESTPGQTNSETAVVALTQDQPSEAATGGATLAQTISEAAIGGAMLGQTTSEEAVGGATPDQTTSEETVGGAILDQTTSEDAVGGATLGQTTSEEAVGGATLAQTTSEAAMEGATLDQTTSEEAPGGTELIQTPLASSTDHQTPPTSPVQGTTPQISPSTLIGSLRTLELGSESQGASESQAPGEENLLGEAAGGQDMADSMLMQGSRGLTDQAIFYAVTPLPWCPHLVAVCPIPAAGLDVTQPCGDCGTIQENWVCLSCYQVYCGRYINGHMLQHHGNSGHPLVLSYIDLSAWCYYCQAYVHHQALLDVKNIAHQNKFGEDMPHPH

Target: Flag-HDAC6, full length (1-1215) (UniProt Q9UBN7)
Assay: co-IP; Flag-tagged HDAC6 constructs and Myc-tagged Chk1 constructs co-transfected into 293T cells, 48 h; lysates pulled down for Flag

binding: binds
B1: Myc-Chk1(1–264) (domain or fragment, UniProt O14757 1-264)
chain: MAVPFVEDWDLVQTLGEGAYGEVQLAVNRVTEEAVAVKIVDMKRAVDCPENIKKEICINKMLNHENVVKFYGHRREGNIQYLFLEYCSGGELFDRIEPDIGMPEPDAQRFFHQLMAGVVYLHGIGITHRDIKPENLLLDERDNLKISDFGLATVFRYNNRERLLNKMCGTLPYVAPELLKRREFHAEPVDVWSCGIVLTAMLAGELPWDQPSDSCQEYSDWKEKKTYLNPWKKIDSAPLALLHKILVENPSARITIPDIKKDRW

binding: binds
B2: Myc-Chk1 (265–476) (domain or fragment, UniProt O14757 265-476)
chain: YNKPLKKGAKRPRVTSGGVSESPSGFSKHIQSNLDFSPVNSASSEENVKYSSSQPEPRTGLSLWDTSPSYIDKLVQGISFSQPTCPDHMLLNSQLLGTPGSSQNPWQRLVKRMTRFFTKLDADKSYQCLKETCEKLGYQWKKSCMNQVTISTTDRRNNKLIFKVNLLEMDDKILVDFRLSKGDGLEFKRHFLKIKGKLIDIVSSQKIWLPAT
